# Laboratory results: PubChem BioAssay AID1259424 (University of Nebraska Medical Center, 2018)
# Assay: 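Seek colon cancer survival genes behaving like KSR1, using a six-gene signature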 (primary screen)
# Cells: human HCT116 colon cancer cells
# Knock-down reagent: siRNA pool against human genes, 50 nM
# Detection: 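Six signature mRNAs by branched-DNA multiplex assay, scaled to two housekeeping genes and non-targeting median, log2; matched to mean KSR1 knockdown profile by Pearson correlation and euclidean distance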
# Reading the numbers: mean correlation with KSR1 profile: higher = expression change more like KSR1 knockdown
# Shown is a random part of about 14,000 deposited reagents. 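Higher correlation or smaller distance means closer resemblance to KSR1 loss; control wells, including KSR1 knockdowns, recur on many plates.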 Further read-outs or replicates are left out here. Reagent sequences are not shown. The record does not give: the time to read-out.
Gene,mean correlation with KSR1 profile
PEX1,-0.213
DHX40,0.473
GSTO1,0.133
C1orf94,0.636
GATB,-0.6
MUC4,-0.394
SMYD3,-0.564
DMD,-0.218
SOX5,0.0819
FFAR3,0.489
PARVA,0.563
PSEN2,-0.497
SIRT5,-0.537
ACSL4,-0.164
GNRHR2,0.777
CNTN1,0.229
SNAPC5,-0.308
AGPAT4-IT1,-0.496
DMRT2,-0.826
NRSN2,0.00277

Targets listed so far whose target name begins with C or c:
Gene,mean correlation with KSR1 profile
C1orf94,0.636
CNTN1,0.229

The listing continues.
Gene,mean correlation with KSR1 profile
BLTP3B,-0.0934
SELENOW,0.33
PRR13,-0.253
SIKE1,-0.0678
DKK2,0.509
KLHL41,0.147
KCNC4,-0.321
SIX3,0.493
NDUFA10,0.503
TMA16,-0.116
BST2,-0.258
PTH1R,0.709
DBF4,-0.0826
POLR1H,-0.156
LAD1,0.399
COL13A1,-0.0115
MINDY1,-0.491
LY6H,0.755
SSH3,-0.569
SNRPB2,-0.546
H1-2,0.598
RBM11,0.54
PXN,0.102
IKZF1,-0.0498
HMGXB4,0.625
NUMBL,-0.583
ZNF649,-0.734
PDCD1LG2,0.0909
ASB4,-0.0524
DNAJC4,-0.15
